Results: patent publication US20200239590A1 (WASHINGTON UNIVERSITY, published 2020)
No constants are given. Whether binding was seen depends on the method and setting. Some binding calls cover weakened binding; strength is not graded here.

T1: recombinant TIP1 protein (tax interacting protein 1) (Homo sapiens (Human)) (UniProt O14907)
T1 sequence: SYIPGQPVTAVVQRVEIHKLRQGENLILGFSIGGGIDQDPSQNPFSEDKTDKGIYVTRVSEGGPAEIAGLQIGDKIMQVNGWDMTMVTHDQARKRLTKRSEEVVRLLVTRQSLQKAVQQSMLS


Key:
[1] = molecular target: T1, recombinant TIP1 protein (tax interacting protein 1) (Homo sapiens (Human)); test: indirect ELISA, hybridoma supernatant dilutions on coated recombinant TIP1, anti-mouse HRP, TMB
[2] = molecular target: T1, recombinant TIP1 protein (tax interacting protein 1) (Homo sapiens (Human)); test: indirect ELISA, recombinant TIP1 coated, 2-fold dilutions of hybridoma supernatant

binding [1] | binding [2] | Binder
binds | binds | 2F10 mouse monoclonal anti-TIP1 antibody (antibody, V domains shown, Mouse monoclonal from hybridoma, tested as supernatant or purified) VH: QVQLQQSGAELARPGASVKLSCKASGYTFTSSGISWVIQKTGQGLEWIGEIYPRSGNTYYNEKFKAKAALTADKSSSTAHMELRSLTSEDSAVYFCARSKTYYSKYGGFFDYWGQGTPLTVSS VL: DVLMTQTPLSLPVSLGDQASISCRSSQSIVHGNGNTYLEWYLQKPGQSPKLLIHKVSNRFSGVPDRFSGSGSGTDFTLKISRVEAEDLGVYYCFQGSHVPPTFGGGTKLEIK
binds | binds | 3D6 mouse monoclonal anti-TIP1 antibody (antibody, V domains shown, Mouse monoclonal from hybridoma) VH: QVQLHQSGAELARPGAAVKLTCKASGYTLTNSGISWVKQRSGQGLEWIGEIYPGSGNIYYNEKFKVKATLTADKSSSTTYMELRSLTSEDSAVYFCARSRTYYSKYGGLFDYWGQGATLTVSS VL: DVLMTQTPLSLPVRLGDQASISCRSSQSLLHNNGNTYLEWYLQKPGQSPKLLIYKVSSRFSGVPDRFSGSGSGTDFTLKISRVEAKDLGVYYCFQGSHIPPTFGGGTKLEIK
binds | binds | 7H5 mouse monoclonal anti-TIP1 antibody (antibody, V domains shown, Mouse monoclonal from hybridoma) VH: QAQLQQSGAELARPGASVRLSCKASGYILTSSGISWVKQRTGQGLEWIGEIYPRSGNTYYNEKFKGKATLTADKSSSIAYMDLRTLTSEDSAVYFCARSKTFYSKYGGVFDYWGQGTTLTVSS VL: DVLMTQTPLSLPVSLGDQASISCRSSQNIVHNNGNTYLDWYLQKPGQSPKLLIYKVSNRFSGVPDRFSGSGSGADFTLKISRVEAEDLGVYYCFQGSHVPPTFGGGTKLEIK
